# Assay results as given in PubChem BioAssay AID1347076 (National Center for Advancing Translational Sciences (NCATS), 2019).
# Hit rate of the full screen: of about 400,000 compounds, about 13,000 (3.2%) were called active. The shares of active, inactive and inconclusive entries below differ from those in the screen. Calls come from the whole dose curve; as a rule, active = well fitted cell-killing curve with a large enough effect; inconclusive = small, poorly fitted or top-dose-only effect, or effect the other way; inactive = flat fitted curve, though single readings scatter. Potencies of inconclusive entries are doubtful fits and often do not repeat.
# Assay: qHTS assay for MDR1-selective chemotherapeutics: Primary screen using the drug-selected MDR subline cells KB-V1; note: nearly all actives have a fitted effect of over 60% in size
# Settings: KB-V1 MDR cells viability, CellTiter-Glo, 72 h; activity change, negative = cytotoxicity: at 46.1 µM (top of the series)
# Method in brief: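 Cytotoxicity via CellTiter-Glo luminescence after 72 h compound exposure at 37 degrees C. Cells: drug-selected KB-V1 line, DMEM phenol-red free plus 10% FBS. Compounds tested at multiple concentrations; normalized data fitted to concentration-effect curves.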
# % is set by controls: 0 for no effect and ±100 for the full control effect; potency is the fitted concentration of half-maximal effect.
Compound,"activity change, negative = cytotoxicity",Potency
CC1Cc2ccccc2N1S(=O)(=O)c1nnc(NC(=O)c2ccccc2Br)s1 (stereo not given),inactive: 1.23%,–
CCC(Sc1nc2ccc(C)cc2[nH]1)C(=O)O (stereo not given),inactive: -1.89%,–
COCCOC(=O)C1=C(C)NC(SCC(=O)NC(C)(C)C)=C(C#N)C1c1ccco1 (stereo not given),inconclusive: -32.5% [cytotoxic],–
N#Cc1ccc(Cl)cc1NC(=O)COC(=O)c1ccc(S(=O)(=O)N2CCCC2)cc1,–,"inconclusive: 13 µM [rising, partial curve, poor fit]"
COc1ccc(-c2csc(NC(=O)CC(C)C)n2)cc1,–,"inconclusive: 23.1 µM [cytotoxic, single point]"
CCCNc1nc(-c2ccccc2)c(C(=O)OCC)cc1C#N,inactive: -32%,–
CCCC(CNC(C)=O)(C1=CCCCC1)c1ccccc1 (stereo not given),–,"inconclusive: 16.4 µM [cytotoxic, single point]"
Cc1nnc(N(C)C(=O)c2ccncc2)s1,–,"inconclusive: 18.4 µM [rising, partial curve, poor fit]"
COc1ccc(C(=O)N(C)c2ccccc2C(=O)NCCc2ccccc2)cc1,–,active: 5.8 µM
C#CCN(C[C@H]1[C@H](OC(=O)NC2CCCC2)[C@H](OC(=O)NC2CCCC2)C[C@@H](C(=O)OC)[C@H]1C(=O)OC)S(=O)(=O)c1ccc(C)cc1,–,"inconclusive: 29.1 µM [cytotoxic, single point]"
Cc1ccc(CNC(=O)c2c[nH]c3ccc(S(=O)(=O)Nc4ccc(C(C)C)cc4)cc3c2=O)cc1,inactive: -0.809%,–
CCCCN(C)CCNC(=O)c1cc2c(-c3ccccc3F)nn(C)c2s1,inactive: -11%,–
COc1ccc(C(CC(=O)NC(C)c2ccc(-c3ccccc3)cc2)NC(C)=O)cc1 (stereo not given),–,"inconclusive: 20.6 µM [cytotoxic, partial curve, poor fit]"
CC(=O)Nc1ccc(S(=O)(=O)N2c3ccccc3C(C)=CC2(C)C)cc1,–,"inconclusive: 5.8 µM [cytotoxic, full curve, poor fit]"
CCn1c(CCC(=O)Nc2nc3c(s2)CCCC3)nc2cc(S(=O)(=O)N(C)C)ccc21,–,active: 23.1 µM
CCc1cc(C(=O)N2CCCC(C(=O)c3ccc(C(F)(F)F)cc3)C2)n(C)n1 (stereo not given),inconclusive: -63.2%,–
COc1ccc(Cl)cc1NS(=O)(=O)c1c(C)nc2scc(C)n2c1=O,inactive: 1.08%,–
CN1CCC(N(C)S(=O)(=O)c2ccc(NC(=O)COc3ccc(Br)cc3Cl)cc2)CC1,–,"inconclusive: 0.0052 µM [cytotoxic, full curve, poor fit]"

# Some of the entries so far, bar-delimited:
Compound | activity change, negative = cytotoxicity | Potency
CCCCN(C)CCNC(=O)c1cc2c(-c3ccccc3F)nn(C)c2s1 | inactive: -11% | –
COc1ccc(C(CC(=O)NC(C)c2ccc(-c3ccccc3)cc2)NC(C)=O)cc1 (stereo not given) | – | inconclusive: 20.6 µM [cytotoxic, partial curve, poor fit]

# Next compounds.

Compound,"activity change, negative = cytotoxicity",Potency
Cc1ccc(S(=O)(=O)N/N=C/c2cccc([N+](=O)[O-])c2)cc1,–,"inconclusive: 23.1 µM [cytotoxic, partial curve, poor fit]"
Cc1cc(NC(=O)CCC(=O)N(CC(=O)NC2CCCC2)c2ccc(C(C)C)cc2)no1,–,"inconclusive: 16.4 µM [cytotoxic, partial curve]"
COc1ccc(CNc2nc(NCc3ccc(OC)cc3)n(C(C)=O)n2)cc1,inactive: 17.8%,–
Cn1cc(C2NC(=O)c3ccccc3N2)c2ccccc21 (stereo not given),–,active: 1.46 µM
O=C(NCCNC(=O)c1ccccc1[N+](=O)[O-])c1ccccc1[N+](=O)[O-],–,"inconclusive: 11.6 µM [rising, partial curve]"
COc1cc(/C=C/c2ccc3ccccc3n2)cc(OC)c1OC,–,"inconclusive: 23.1 µM [cytotoxic, single point]"
O=c1[nH]c(-c2ccc(-c3cccc(Cl)c3)o2)nc2ccccc12,inactive: -6.1%,–
CC(C)CC(=O)Nc1ccc(C(=O)COC(=O)C2CC(=O)N(Cc3ccccc3)C2)cc1 (stereo not given),–,"inconclusive: 29.1 µM [rising, single point]"
COc1ccc(C=CC(=O)c2ccc([N+](=O)[O-])cc2)cc1,inactive: 0%,–
O=C1CC(c2ccccc2)=NN1c1ccc([N+](=O)[O-])cc1,–,"inconclusive: 29.1 µM [cytotoxic, single point]"
O=C(Cn1nnc(-c2ccc(Cl)cc2)n1)NC1CCS(=O)(=O)C1 (stereo not given),–,"inconclusive: 20.6 µM [rising, single point]"
COc1ccc(-c2csc(NC(=O)CCN3C(=O)C4CC=CCC4C3=O)n2)cc1OC (stereo not given),–,"inconclusive: 20.6 µM [cytotoxic, single point]"
Cc1ccc(NS(=O)(=O)c2cc3c(cc2F)NC(=O)CC3)cc1Cl,inactive: 15.4%,–
O=C(NCc1csc2ccc(Cl)cc12)Nc1cccc2ccccc12,inactive: 17.5%,–
CC(Oc1ccccc1)C(=O)Nc1cc(Cl)ccc1-n1cncn1 (stereo not given),inactive: -21.8%,–
CCOC(=O)c1cc(C)sc1NC(=O)CSc1nccn1C,–,"inconclusive: 5.8 µM [cytotoxic, partial curve]"
Cc1cc(/C=C2\SC(=S)NC2=O)c(C)n1C1CC1,–,"inconclusive: 16.4 µM [cytotoxic, single point]"
